Results reported in paper PMC10163288.
This is one part of the list.

B1: il2ra_site2_2erj_sap_28_mot_036bed11a46af16b1bcff1c055f4941a_0001_af2_000000100_0001_34_48_H_._HHH_b2_04017_0001_0000300009_0000001_0_0001 (protein)
chain: SSSSSEEEERLEELLKKIEEAIEKNDFRLANELLAEVIELARELNDDEVLRAVYELMRRVFSSSS
B2: il2ra_site1_1z92_sap_24_mot_HHH_b1_07526_000000113_0001_40_57_H_._HEEHE_2114_af2_0001_0000200014_0000001_0_0001_af2pred_0001_af2pred_1 (protein)
chain: SSSSDDEELQEAMELWEEAARIRDPEEVEELLERAKELAKRANDENILKDIEHFLRLLRKSSSSS
B3: il2ra_site2_3nfp_sap_16_mot_HHH_b2_04619_000000299_0001_40_56_H_._HHH_b1_03268_0001_0000100007_0000001_0_0001 (protein)
chain: SEELEELLKELKEHGDPRLAEELAELLKELKRRGDPEAIRVAWELLRLALEGDPLASEVADALTK
B4: il2ra_site1_3nfp_sap_14_mot_891b8491a18eb46c9ad5c1702b87f9cc_0001_000000120_0001_18_33_H_._HHH_b2_03173_0001_0000100001_0000001_0_0001_af2pred_0001_af2pred (protein)
chain: SSSSDEEEEELEKLLEKLRELLKEGDAHKVSRLVKRILQLARKLEDEEVHREVEELLRRAASSSS
B5: il2ra_site2_2erj_sap_13_mot_12d8a9d2629acc90dc040184e432c6f0_0001_000000022_0001_16_30_H_._HHH_b2_07593_0001_0000800022_0000001_0_0001 (protein)
chain: SSSSDEEEEMLEAMLELVEELLKLGNPEDARIALEFAKALARALNDEEIQRLLEELEEELDSSSS
B6: il2ra_site2_2erj_normal_mot_HHH_b2_07568_000000046_0001_18_34_H_._HHH_b2_05586_af2_0001_0000200004_0000001_0 (protein)
chain: SSSSDEEEARRLYEEAEKLLEEGDPEEALEVLRRASEIAFEAGDFELFAEISELLREVAERSSSS
B7: il2ra_site1_2b5i_sap_18_mot_HHH_b2_04910_000000118_0001_1_19_H_._HHH_b1_00873_0001_0000100003_0000001_0_0001 (protein)
chain: SSSSDELQELFREASELYREGNSEEAEKVLRKAEELAEELNDEKALEDLRFMLEQVERAKSSSSS
B8: il2ra_site2_2erj_sap_25_mot_9bc32e39fd96e64286323717145257bc_0001_000000236_0001_17_32_H_._99435e095d70fd56fcad6a1c72fb48ac_0001_1_af2_0001_0000300011_0000001_0 … (protein)
chain: SSSSSDEEEILEEAKELLERLLKEGDPREAFKVASRFLMALLQLGDKEAAEELLKLAQETSSSSS
B9: il2ra_site1_2b5i_normal_mot_HHH_b1_01574_000000118_0001_1_19_H_._HHH_b1_03987_0001_0000500015_0000001_0_af2pred_dldesign_0_af2pred (protein)
chain: SSSSSSEKDFERRVKLLEEALKEIKDEAARAEITALLKEAEKNKDNVLLRRAMELANSVLSSSSS
B10: il2ra_site1_3nfp_sap_7_mot_HHH_b2_01582_af2_000000000_0001_1_16_H_._HHH_b2_07458_0001_0000500016_0000001_0_0001 (protein)
chain: DLEEEVREILERRLPPRLVELFLDVLKLAERELGDPEEALERLIERLRKLGTPEVAKLLEELLKR
B11: il2ra_site1_1z92_normal_mot_HHH_b1_04261_000000113_0001_39_52_H_._HEEHE_2123_af2_0001_0000100006_0000001_0 (protein)
chain: NAERAAEQLAEFLERTYKVPKVEIEVKNDRVTVTVKGDDELAELALKVAEKLAEAAGDEVELRTE
B12: il2ra_site1_1z92_normal_mot_890837e3a18e6c361ae5da7f11a0c10d_0001_1_000000285_0001_19_34_H_._0f4cfc614b99dbcf159cc5af5b9a7aad_0001_1_0001_0000100005_0000001_0_a … (protein)
chain: SLEERLLALAEKLGIPAADVRRMLARLTAQLGNPRNALTYLYRLAKLALERKDERLIAFLREAAE
B13: il2ra_site2_3nfp_sap_12_mot_HHH_b2_00102_000000046_0001_18_35_H_._HHH_b1_03494_0001_0000300004_0000001_0_0001 (protein)
chain: SSSSSSSIAELISEAIRLRENGNPEEAQEVLEEAIKEAEERGDERAVEYLRAVLLLLEESSSSSS
B14: il2ra_site1_2b5i_normal_mot_HHH_b1_08745_af2_000000166_0001_39_57_H_._HHH_b2_04998_0001_0000300020_0000001_0_af2pred_dldesign_0_af2pred (protein)
chain: SSSSSSGEEIRRLLLEAERLRKAGKEEEAKELLERALELARARKATLAQKFIESALKSLSSSSSS
B15: il2ra_site2_3nfp_normal_mot_HHH_b1_06158_af2_000000274_0001_1_17_H_._HHH_b1_07117_af2_0001_0000700036_0000001_0 (protein)
chain: SSSSDEKEKLEELMEQALDSAEALGDEELKELLEELLEELREKGDPRILLEAYELVREAYESSSS
B16: il2ra_site1_1z92_sap_13_mot_HHH_b2_05238_af2_000000252_0001_38_55_H_._HHH_b2_06678_0001_0000100005_0000001_0_0001 (protein)
chain: SSSSTRELARIIAELISRFKLSLEDMRELDRLALELARRGYSDEEIEELLEELAEELKKGSSSSS
B17: il2ra_site2_2erj_normal_mot_HHH_b1_01197_000000128_0001_38_49_H_._HHH_b1_08340_0001_0000300010_0000001_0 (protein)
chain: SSSSDELRERIEELLEELEKLVKEGDLARVQEVAQEIAELLRELGDPELAKELNRLLQEAMSSSS
B18: il2ra_site2_3nfp_normal_mot_HHH_b1_00660_af2_000000090_0001_40_57_H_._HHH_b1_06383_af2_0001_0000300014_0000001_0 (protein)
chain: SSSSSELEERIRRLLEELEERIKEGDEERVRELLEEIANLIWELQNFELFAILNELRALAASSSS

target: il2ra, P01589; assay: yeast display titration

Apparent Kd, inactive:
B1 no binding seen
B2 no binding seen
B3 no binding seen
B4 no binding seen
B5 no binding seen
B6 no binding seen
B7 no binding seen
B8 no binding seen
B9 no binding seen
B10 no binding seen
B11 no binding seen
B12 no binding seen
B13 no binding seen
B14 no binding seen
B15 no binding seen
B16 no binding seen
B17 no binding seen
B18 no binding seen

Retrieved one by one from above:
Apparent Kd, inactive:
B9 no binding seen
B14 no binding seen
